Test results taken from publication doi:10.1101/2025.09.18.676964.

Target: purified KhpB protein (Deinococcus radiodurans) (UniProt Q9RXR1)
Test: SEC

purified KhpA protein (from UniProt Q9RSW2)
binding: binds

Results are given in words; binding and its absence hold for the method and conditions named. A result given as binding can be weak or reduced; the word gives no strength.
